In US20230021187A1:
No constants are given. Whether binding was seen depends on the method and setting. Some binding calls cover weakened binding; strength is not graded here.

By UniProt entry, the sequences of proteins in these tests, tags left out. Residues count along the entry.
UniProt P05067, residues 672-713: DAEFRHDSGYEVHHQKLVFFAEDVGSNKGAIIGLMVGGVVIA

Key:
amylospheroids (ASPD) [1] = molecular target: amylospheroids (ASPD) (UniProt P05067); experiment: sandwich CLEIA, huASD2 capture / biotinylated mASD3 detection, patients' plasma
amylospheroids (ASPD) [2] = molecular target: amylospheroids (ASPD) (UniProt P05067); experiment: sandwich CLEIA, huASD2 capture / mASD3 detection
amylospheroids (ASPD) [3] = molecular target: amylospheroids (ASPD) (UniProt P05067); experiment: sandwich CLEIA, huASD2 capture / biotinylated mASD3 detection

binding (amylospheroids (ASPD) [1]): binds
binding (amylospheroids (ASPD) [2]): binds
binding (amylospheroids (ASPD) [3]): binds
B1: humanized anti-ASPD monoclonal antibody huASD2 (antibody, V domains shown)
VH: EVQLVESGGGLVKPGGSLRLSCAASGFTFSDYFMSWVRQAPGKGLEWVGGIEIKSYFYATYYFGSVKGRFTISRDDSKNTLYLQMNSLKTEDTAVYYCTTNREVGGLDNWGQGTLVTVSS
VL: QSVLTQPSSLSASPGASASLTCTLRSGISVGGKNIYWYQQKPGSPPQYLLKYSSYSNKQLGPGVPSRFSGSKDASANAGILLISGLQSEDEADYYCSIHESNAYVFGGGTKLTVLG
